Source: paper PMC7439480, “Phosphorylation-Dependent Assembly of a 14-3-3 Mediated Signaling Complex during Red Blood Cell Invasion by Plasmodium falciparum Merozoites” (mBio, 2020)

Sequences of proteins named here, by UniProt entry; tags and fusion partners are left off.
UniProt Q8I719: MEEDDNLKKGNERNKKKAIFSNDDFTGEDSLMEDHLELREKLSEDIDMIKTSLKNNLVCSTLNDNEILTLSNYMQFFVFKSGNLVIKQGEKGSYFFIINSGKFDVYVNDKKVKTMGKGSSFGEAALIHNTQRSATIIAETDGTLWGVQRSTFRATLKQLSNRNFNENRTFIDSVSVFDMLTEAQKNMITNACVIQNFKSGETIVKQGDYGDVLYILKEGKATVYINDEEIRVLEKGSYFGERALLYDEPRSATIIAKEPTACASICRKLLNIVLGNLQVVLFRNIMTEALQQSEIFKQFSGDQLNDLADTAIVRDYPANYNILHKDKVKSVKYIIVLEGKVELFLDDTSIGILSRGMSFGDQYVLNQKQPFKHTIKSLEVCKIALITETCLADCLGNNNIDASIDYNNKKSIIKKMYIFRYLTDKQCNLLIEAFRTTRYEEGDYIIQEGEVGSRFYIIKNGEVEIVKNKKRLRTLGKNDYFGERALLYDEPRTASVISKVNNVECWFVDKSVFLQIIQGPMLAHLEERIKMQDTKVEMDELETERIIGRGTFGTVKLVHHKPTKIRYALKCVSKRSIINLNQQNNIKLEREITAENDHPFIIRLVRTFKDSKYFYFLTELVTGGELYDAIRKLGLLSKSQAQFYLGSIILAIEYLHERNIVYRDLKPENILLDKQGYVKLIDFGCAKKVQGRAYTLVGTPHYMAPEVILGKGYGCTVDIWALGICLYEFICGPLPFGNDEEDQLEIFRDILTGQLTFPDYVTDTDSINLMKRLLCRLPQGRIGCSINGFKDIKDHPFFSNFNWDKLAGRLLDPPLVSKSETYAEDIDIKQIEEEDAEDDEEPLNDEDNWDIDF
UniProt Q8IKK7: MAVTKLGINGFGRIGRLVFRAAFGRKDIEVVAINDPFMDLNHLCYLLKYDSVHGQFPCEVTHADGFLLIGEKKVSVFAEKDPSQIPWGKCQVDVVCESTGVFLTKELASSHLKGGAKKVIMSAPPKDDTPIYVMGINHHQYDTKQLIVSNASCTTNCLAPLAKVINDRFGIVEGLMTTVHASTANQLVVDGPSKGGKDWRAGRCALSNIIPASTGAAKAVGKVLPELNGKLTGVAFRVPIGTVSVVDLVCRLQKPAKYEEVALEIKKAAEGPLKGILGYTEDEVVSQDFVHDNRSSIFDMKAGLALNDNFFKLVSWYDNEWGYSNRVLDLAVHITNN

T1: Pf14-3-3I (P. falciparum 3D7 (endogenous in merozoites)) (UniProt C0H4V6)
T1 sequence: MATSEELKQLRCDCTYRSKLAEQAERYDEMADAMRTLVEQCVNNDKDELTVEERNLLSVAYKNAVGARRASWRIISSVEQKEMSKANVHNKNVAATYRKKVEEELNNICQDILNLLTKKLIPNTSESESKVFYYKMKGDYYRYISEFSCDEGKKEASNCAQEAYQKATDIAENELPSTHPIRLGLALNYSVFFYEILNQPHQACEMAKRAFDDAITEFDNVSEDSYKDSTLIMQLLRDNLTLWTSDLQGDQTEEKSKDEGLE


Target: T1, Pf14-3-3I (P. falciparum 3D7 (endogenous in merozoites))
Assay: affinity purification with mass spectrometry; IP with anti-PfPKAr, anti-PfCDPK1 or anti-Pf14-3-3I polyclonal sera (Pierce co-IP kit) from lysates of merozoites in RPMI 1640 (low K+); eluates analysed by LC-MS/MS, MaxQuant

Row | Molecule | binding
1 | P. falciparum protein kinase A catalytic subunit (PfPKAc) (enzyme) | binds
2 | P. falciparum protein kinase G (PfPKG) (from UniProt Q8I719 1-853) (enzyme) | no binding
3 | actin-depolymerizing factor 1 | binds
4 | glyceraldehyde-3-phosphate dehydrogenase (from UniProt Q8IKK7 1-337) (enzyme) | binds
5 | phosphoethanolamine N-methyltransferase (enzyme, UniProt Q8IDQ9 1-266) MTLIENLNSDKTFLENNQYTDEGVKVYEFIFGENYISSGGLEATKKILSDIELNENSKVLDIGSGLGGGCMYINEKYGAHTHGIDICSNIVNMANERVSGNNKIIFEANDILTKEFPENNFDLIYSRDAILHLSLENKNKLFQKCYKWLKPTGTLLITDYCATEKENWDDEFKEYVKQRKYTLITVEEYADILTACNFKNVVSKDLSDYWNQLLEVEHKYLHENKEEFLKLFSEKKFISLDDGWSRKIKDSKRKMQRWGYFKATKN | binds

No constants are given. Whether binding was seen depends on the method and setting. In cells and extracts the contact can be indirect. A yes stands for co-enrichment or nearness to the bait. Other partners may have been found. No binding means not detected with the bait.
